# From article PMC12573202
# By UniProt entry, the sequences of proteins in these tests, tags left out. Residues count along the entry.
# UniProt Q9NZQ7, residues 19-290: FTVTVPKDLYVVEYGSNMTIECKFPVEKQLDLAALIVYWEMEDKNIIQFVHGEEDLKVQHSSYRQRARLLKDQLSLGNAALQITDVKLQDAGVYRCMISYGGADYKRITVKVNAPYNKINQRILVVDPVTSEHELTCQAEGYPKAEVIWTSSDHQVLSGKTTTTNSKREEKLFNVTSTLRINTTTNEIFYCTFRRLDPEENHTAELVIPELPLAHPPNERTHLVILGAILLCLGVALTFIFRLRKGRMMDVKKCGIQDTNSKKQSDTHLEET
# No constants are given. Whether binding was seen depends on the method and setting. Binding seen in cells or lysates may run through a third protein. Some results given as binding are weak or reduced against the parent protein; the word gives no strength. Where a sequence is shown, tags or fusion partners need not be part of it.
# B1: Motif interacting with ubiquitin-containing novel DUB family-1 (MINDY1), HA-tagged (enzyme, UniProt Q8N5J2 1-469)
# chain: MEYHQPEDPAPGKAGTAEAVIPENHEVLAGPDEHPQDTDARDADGEAREREPADQALLPSQCGDNLESPLPEASSAPPGPTLGTLPEVETIRACSMPQELPQSPRTRQPEPDFYCVKWIPWKGEQTPIITQSTNGPCPLLAIMNILFLQWKVKLPPQKEVITSDELMAHLGNCLLSIKPQEKSEGLQLNFQQNVDDAMTVLPKLATGLDVNVRFTGVSDFEYTPECSVFDLLGIPLYHGWLVDPQSPEAVRAVGKLSYNQLVERIITCKHSSDTNLVTEGLIAEQFLETTAAQLTYHGLCELTAAAKEGELSVFFRNNHFSTMTKHKSHLYLLVTDQGFLQEEQVVWESLHNVDGDSCFCDSDFHLSHSLGKGPGAEGGSGSPETQLQVDQDYLIALSLQQQQPRGPLGLTDLELAQQLQQEEYQQQQAAQPVRMRTRVLSLQGRGATSGRPAGERRQRPKHESDCILL
# Target: Programmed death-ligand 1 (PD-L1), Flag-tagged (UniProt Q9NZQ7)
# Assay: co-IP; HA-MINDY1 and Flag-PD-L1 transfected into Hep3B and Huh-7 cells for 24 h; lysate supernatant mixed with the specific antibody at 4°C for 12 h, protein A/G agarose beads 2 h, Western blot (Classic Magnetic IP/Co-IP Kit)
binder,measurement,value
B1,binding,binds
